Among the data in PMC9120031 are binding values, retold here.

Sequences of proteins named here, by UniProt entry; tags and fusion partners are left off. A change or cut given only in a name is not applied to a line headed by its entry.
UniProt Q9JHF5: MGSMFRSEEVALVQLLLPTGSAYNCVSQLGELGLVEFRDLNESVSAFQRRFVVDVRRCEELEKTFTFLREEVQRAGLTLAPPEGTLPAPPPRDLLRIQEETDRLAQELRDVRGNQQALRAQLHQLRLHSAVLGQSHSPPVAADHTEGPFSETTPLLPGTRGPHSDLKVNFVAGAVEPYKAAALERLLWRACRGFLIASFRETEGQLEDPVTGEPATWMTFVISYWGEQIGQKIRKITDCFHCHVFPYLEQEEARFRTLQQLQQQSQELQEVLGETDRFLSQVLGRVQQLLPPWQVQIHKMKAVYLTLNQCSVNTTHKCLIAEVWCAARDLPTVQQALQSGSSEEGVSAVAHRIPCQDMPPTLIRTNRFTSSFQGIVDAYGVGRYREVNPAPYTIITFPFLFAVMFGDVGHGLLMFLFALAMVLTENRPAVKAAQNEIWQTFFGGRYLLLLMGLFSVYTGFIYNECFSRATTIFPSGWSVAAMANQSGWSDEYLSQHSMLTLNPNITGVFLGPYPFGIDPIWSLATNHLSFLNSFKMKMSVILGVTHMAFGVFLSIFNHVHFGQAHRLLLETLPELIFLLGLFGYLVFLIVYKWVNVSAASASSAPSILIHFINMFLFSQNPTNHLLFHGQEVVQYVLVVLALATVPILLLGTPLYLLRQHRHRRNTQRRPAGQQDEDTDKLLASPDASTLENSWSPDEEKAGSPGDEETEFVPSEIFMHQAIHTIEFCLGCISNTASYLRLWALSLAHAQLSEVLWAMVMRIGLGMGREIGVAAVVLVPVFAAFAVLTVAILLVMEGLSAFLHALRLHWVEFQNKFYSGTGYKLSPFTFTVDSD

Where a chain is given by its changes, count along the chain named. Names and notes keep the numbering of the source. Results are given in words; binding and its absence hold for the method and conditions named. Binding seen in cells or lysates may run through a third protein. Binding calls can cover weak binding; strength is not graded here. Where a sequence is shown, tags or fusion partners need not be part of it.

B1: V5-Mon1A deletion mutant 117-556 (domain or fragment, UniProt Q6PDG8 117-556)
chain: SEDWPEPQGAAGRGAATEPSQEGSTEGEEEDATEAWRLHQKHVFVLSEAGKPVYSRYGSEEALSSTMGVMVALVSFLEADKNAIRSIHADGYKVVFVRRSPLVLVAVARTRQSAQELAQELLYIYYQILSLLTGAQLSHIFQQKQNYDLRRLLSGSERITDNLLQLMARDPSFLMGAARCLPLAAAVRDTVSASLQQARARSLVFSILLAHNQLVALVRRKDQFLHPIDLHLLFNLISSSSSFREGEAWTPVCLPKFNAAGFFHAHISYLEPDTDLCLLLISTDREDFFAVSDCRRRFQERLRKRGTHLALREALRTPYYSVAQVGIPDLRHFLYKSKSSGLFTSPEIEAPYSSEEEQERLLGLYQYLHSRAHNASRPLKTIYYTGPNENLLAWVTGAFELYMCYSPLGTKASAVSAIHKLMRWIRKEEDRLFILTPLTY
B2: V5-Mon1A deletion mutant 1-246 (domain or fragment, UniProt Q6PDG8 1-246)
chain: MAADMQRKRSSECPEGTLAPSNGQSVERAESPTPGLTQGTEPGAGQEGAMFVHTRSYEDLTELEDREASGDSPKECVGSPPPLATDMRQISQDFSELSTQLTGVARDLQEEMLPGSSEDWPEPQGAAGRGAATEPSQEGSTEGEEEDATEAWRLHQKHVFVLSEAGKPVYSRYGSEEALSSTMGVMVALVSFLEADKNAIRSIHADGYKVVFVRRSPLVLVAVARTRQSAQELAQELLYIYYQILS
B3: V5-Mon1A deletion mutant 117-266 (domain or fragment, UniProt Q6PDG8 117-266)
chain: SEDWPEPQGAAGRGAATEPSQEGSTEGEEEDATEAWRLHQKHVFVLSEAGKPVYSRYGSEEALSSTMGVMVALVSFLEADKNAIRSIHADGYKVVFVRRSPLVLVAVARTRQSAQELAQELLYIYYQILSLLTGAQLSHIFQQKQNYDLR
B4: V5-Mon1A deletion mutant 97-556 (domain or fragment, UniProt Q6PDG8 97-556)
chain: LSTQLTGVARDLQEEMLPGSSEDWPEPQGAAGRGAATEPSQEGSTEGEEEDATEAWRLHQKHVFVLSEAGKPVYSRYGSEEALSSTMGVMVALVSFLEADKNAIRSIHADGYKVVFVRRSPLVLVAVARTRQSAQELAQELLYIYYQILSLLTGAQLSHIFQQKQNYDLRRLLSGSERITDNLLQLMARDPSFLMGAARCLPLAAAVRDTVSASLQQARARSLVFSILLAHNQLVALVRRKDQFLHPIDLHLLFNLISSSSSFREGEAWTPVCLPKFNAAGFFHAHISYLEPDTDLCLLLISTDREDFFAVSDCRRRFQERLRKRGTHLALREALRTPYYSVAQVGIPDLRHFLYKSKSSGLFTSPEIEAPYSSEEEQERLLGLYQYLHSRAHNASRPLKTIYYTGPNENLLAWVTGAFELYMCYSPLGTKASAVSAIHKLMRWIRKEEDRLFILTPLTY
B5: V5-Mon1A deletion mutant 1-266 (domain or fragment, UniProt Q6PDG8 1-266)
chain: MAADMQRKRSSECPEGTLAPSNGQSVERAESPTPGLTQGTEPGAGQEGAMFVHTRSYEDLTELEDREASGDSPKECVGSPPPLATDMRQISQDFSELSTQLTGVARDLQEEMLPGSSEDWPEPQGAAGRGAATEPSQEGSTEGEEEDATEAWRLHQKHVFVLSEAGKPVYSRYGSEEALSSTMGVMVALVSFLEADKNAIRSIHADGYKVVFVRRSPLVLVAVARTRQSAQELAQELLYIYYQILSLLTGAQLSHIFQQKQNYDLR
B6: V5-Mon1A deletion mutant 1-288 (domain or fragment, UniProt Q6PDG8 1-288)
chain: MAADMQRKRSSECPEGTLAPSNGQSVERAESPTPGLTQGTEPGAGQEGAMFVHTRSYEDLTELEDREASGDSPKECVGSPPPLATDMRQISQDFSELSTQLTGVARDLQEEMLPGSSEDWPEPQGAAGRGAATEPSQEGSTEGEEEDATEAWRLHQKHVFVLSEAGKPVYSRYGSEEALSSTMGVMVALVSFLEADKNAIRSIHADGYKVVFVRRSPLVLVAVARTRQSAQELAQELLYIYYQILSLLTGAQLSHIFQQKQNYDLRRLLSGSERITDNLLQLMARDPS
B7: V5-Mon1A deletion mutant 137-556 (domain or fragment, UniProt Q6PDG8 137-556)
chain: QEGSTEGEEEDATEAWRLHQKHVFVLSEAGKPVYSRYGSEEALSSTMGVMVALVSFLEADKNAIRSIHADGYKVVFVRRSPLVLVAVARTRQSAQELAQELLYIYYQILSLLTGAQLSHIFQQKQNYDLRRLLSGSERITDNLLQLMARDPSFLMGAARCLPLAAAVRDTVSASLQQARARSLVFSILLAHNQLVALVRRKDQFLHPIDLHLLFNLISSSSSFREGEAWTPVCLPKFNAAGFFHAHISYLEPDTDLCLLLISTDREDFFAVSDCRRRFQERLRKRGTHLALREALRTPYYSVAQVGIPDLRHFLYKSKSSGLFTSPEIEAPYSSEEEQERLLGLYQYLHSRAHNASRPLKTIYYTGPNENLLAWVTGAFELYMCYSPLGTKASAVSAIHKLMRWIRKEEDRLFILTPLTY
B8: V5-Ccz1 deletion mutant 38-480 (domain or fragment, UniProt Q8C1Y8 38-480)
chain: EEENKILFYHPNEVEKNEKIRNVGLCEAIVQFTRTFSPSKPAKSLHTQKNRQFFNEPEENFWMVMVVRNPIIEKQSKDGKAVVEYQEEELLDKVYSSVLQQCYSMYKLFNGTFLKAMEDGGVKLLKERLEKFFHRYLQTLHLQSCDLLDIFGGISFFPLDKMTYLKIQSFINRMEESLSVVKYTAFLYNDQLIWSGLEQDDMRILYKYLTTSLFPRHIEPELAGRDSPVRAEMPGNLQHYGRFLTGPLNLNDPEAKCRFPKIFVNTDDTYEELHLIVYKAMSAAVCFMIDASTPLTLDFCRRLDSIVGPQLTVLASDICEQFNINKRISGSEKEPQFKFIYFNHMNLAEKSTIHMRKTPSVSLTSVHPDLMKILGDINSDFTRADEDEEIIVKAMSDYWVVGKKSDQRELYVILSQKNANLIEVNEEVKKLCATQFNNIFFLD
B9: V5-Ccz1 deletion mutant 1-250 (domain or fragment, UniProt Q8C1Y8 1-250)
chain: MAAAAAGPGAWAAQEKQFPPALLSFFIYNPRFGPREGEEENKILFYHPNEVEKNEKIRNVGLCEAIVQFTRTFSPSKPAKSLHTQKNRQFFNEPEENFWMVMVVRNPIIEKQSKDGKAVVEYQEEELLDKVYSSVLQQCYSMYKLFNGTFLKAMEDGGVKLLKERLEKFFHRYLQTLHLQSCDLLDIFGGISFFPLDKMTYLKIQSFINRMEESLSVVKYTAFLYNDQLIWSGLEQDDMRILYKYLTTSL
B10: V5-Ccz1 deletion mutant 38-250 (domain or fragment, UniProt Q8C1Y8 38-250)
chain: EEENKILFYHPNEVEKNEKIRNVGLCEAIVQFTRTFSPSKPAKSLHTQKNRQFFNEPEENFWMVMVVRNPIIEKQSKDGKAVVEYQEEELLDKVYSSVLQQCYSMYKLFNGTFLKAMEDGGVKLLKERLEKFFHRYLQTLHLQSCDLLDIFGGISFFPLDKMTYLKIQSFINRMEESLSVVKYTAFLYNDQLIWSGLEQDDMRILYKYLTTSL
B11: V5-Ccz1 deletion mutant 20-480 (domain or fragment, UniProt Q8C1Y8 20-480)
chain: PALLSFFIYNPRFGPREGEEENKILFYHPNEVEKNEKIRNVGLCEAIVQFTRTFSPSKPAKSLHTQKNRQFFNEPEENFWMVMVVRNPIIEKQSKDGKAVVEYQEEELLDKVYSSVLQQCYSMYKLFNGTFLKAMEDGGVKLLKERLEKFFHRYLQTLHLQSCDLLDIFGGISFFPLDKMTYLKIQSFINRMEESLSVVKYTAFLYNDQLIWSGLEQDDMRILYKYLTTSLFPRHIEPELAGRDSPVRAEMPGNLQHYGRFLTGPLNLNDPEAKCRFPKIFVNTDDTYEELHLIVYKAMSAAVCFMIDASTPLTLDFCRRLDSIVGPQLTVLASDICEQFNINKRISGSEKEPQFKFIYFNHMNLAEKSTIHMRKTPSVSLTSVHPDLMKILGDINSDFTRADEDEEIIVKAMSDYWVVGKKSDQRELYVILSQKNANLIEVNEEVKKLCATQFNNIFFLD
B12: V5-Ccz1 deletion mutant 20-250 (domain or fragment, UniProt Q8C1Y8 20-250)
chain: PALLSFFIYNPRFGPREGEEENKILFYHPNEVEKNEKIRNVGLCEAIVQFTRTFSPSKPAKSLHTQKNRQFFNEPEENFWMVMVVRNPIIEKQSKDGKAVVEYQEEELLDKVYSSVLQQCYSMYKLFNGTFLKAMEDGGVKLLKERLEKFFHRYLQTLHLQSCDLLDIFGGISFFPLDKMTYLKIQSFINRMEESLSVVKYTAFLYNDQLIWSGLEQDDMRILYKYLTTSL
B13: V5-Mon1A G166P/K167D (PD) mutant (protein, UniProt Q6PDG8 1-556)
chain: MAADMQRKRSSECPEGTLAPSNGQSVERAESPTPGLTQGTEPGAGQEGAMFVHTRSYEDLTELEDREASGDSPKECVGSPPPLATDMRQISQDFSELSTQLTGVARDLQEEMLPGSSEDWPEPQGAAGRGAATEPSQEGSTEGEEEDATEAWRLHQKHVFVLSEAPDPVYSRYGSEEALSSTMGVMVALVSFLEADKNAIRSIHADGYKVVFVRRSPLVLVAVARTRQSAQELAQELLYIYYQILSLLTGAQLSHIFQQKQNYDLRRLLSGSERITDNLLQLMARDPSFLMGAARCLPLAAAVRDTVSASLQQARARSLVFSILLAHNQLVALVRRKDQFLHPIDLHLLFNLISSSSSFREGEAWTPVCLPKFNAAGFFHAHISYLEPDTDLCLLLISTDREDFFAVSDCRRRFQERLRKRGTHLALREALRTPYYSVAQVGIPDLRHFLYKSKSSGLFTSPEIEAPYSSEEEQERLLGLYQYLHSRAHNASRPLKTIYYTGPNENLLAWVTGAFELYMCYSPLGTKASAVSAIHKLMRWIRKEEDRLFILTPLTY
B14: V5-Mon1A N262W/D264A/R266A (WAA) mutant (protein, UniProt Q6PDG8 1-556)
chain: B13 chain with P166G, D167K, N262W, D264A, R266A

The first experiment concerns the target FLAG-tagged a3N (amino-terminal half of a3, amino acids 1-386) (UniProt Q9JHF5). As to the kind of experiment: co-IP; FLAG- and V5-tagged proteins co-expressed in HEK293T cells; lysed 48 h after transfection in IP buffer (1% Triton X-100, 10% glycerol, 50 mM Tris-HCl pH 7.4, 150 mM NaCl, 1 mM dithiothreitol, 1 mM EDTA); precipitated with anti-FLAG antibody; western blot with anti-V5 (or anti-A subunit) antibody.
For B1, the binding result is “binds”.

With B2, the binding result is “binds weakly”.

Take B3: the binding entry is “binds”. The same measure, in the same setting: to B4 belongs “binds”. Regarding B5, the binding entry is “binds”. Turning to B6, the binding result is “binds”.

As for B7, the binding entry is “binds weakly”. On the same count and under the same terms, to B8 belongs “binds”; to B9, “binds”.

As for B10, the binding result is “binds”. Same read-out and setting: in the case of B11 it was “binds”; in that of B12, “binds”.

In the next experiment the target is FLAG-tagged V-ATPase a3 subunit (full-length) (UniProt Q9JHF5). Described as above.
Take B13: the binding entry was “binds”. B14: the binding result was “binds”.
